The whole screen tested about 330,000 compounds, of which about 7,700 (2.3%) were called active. Inconclusive means that the source gave no clear call. Such entries were picked first, then a sample of the others. The call rests on the fitted dose curve; in most records, active means well fitted inhibition curve with a large enough effect; inconclusive means small, poorly fitted or top-dose-only effect, or effect the other way; inactive means flat fitted curve, though single readings scatter. Potencies of inconclusive entries are doubtful fits and often do not repeat.
Assay: qHTS screen for small molecules that inhibit ELG1-dependent DNA repair in human embryonic kidney (HEK293T) cells expressing luciferase-tagged ELG1; further: nearly all actives have a fitted effect of over 55% in size
Conditions: HEK293T ELG1-luciferase reporter, luminescence, 16 h, DNA damage induced by 5-fluorouridine; series mostly up to 46.1 µM
Procedure, shortened: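 HEK293T cells expressing luciferase-tagged ELG1 (2,000/well) received 5-Fluorouridine plus compound or DMSO for 16 hr at 37 °C. Luciferase was read by ONE-Glo luminescence after 30 min at room temperature.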
Potency means the concentration at half of the fitted maximal effect.

Compound	Potency
O=C(COC(=O)c1ccc2c(c1[N+](=O)[O-])C(=O)c1ccccc1C2=O)NC1CC1	inactive
COc1ccc(S(=O)(=O)N2CCCCC2)cc1NC(=O)C1CC(=O)N(Cc2ccccc2)C1 (centres undefined)	inactive
Cc1cc(=O)oc2ccc(OCC(=O)N(Cc3ccc(F)cc3)Cc3ccco3)cc12	inconclusive: 23.1 µM [inhibitor, single point]
Cc1onc(-c2c(Cl)cccc2Cl)c1COC(=O)c1ccc(Cl)cc1[N+](=O)[O-]	inconclusive: 16.4 µM [inhibitor, partial curve]
Cc1noc(C)c1COc1ccc(C(=O)NCC(c2c(F)cccc2Cl)N(C)C)cc1 (centres undefined)	inconclusive: 0.0231 µM [activator, full curve, poor fit]
O=C(CCc1ccccc1)Nc1ccc(F)cc1F	inconclusive: 20.6 µM [activator, partial curve]
COc1ccc(C2SCCN2S(=O)(=O)c2ccc(NC(C)=O)cc2)cc1 (centres undefined)	inconclusive: 23.1 µM [inhibitor, partial curve]
CCOc1cc(S(=O)(=O)n2cc(-c3ccc(F)cc3)c(N)n2)cc(OCC)c1OCC	active: 14.6 µM
COc1ccc(Nc2nc(-c3ccccc3)c(C(=O)Nc3cccnc3)s2)cc1	inconclusive: 16.4 µM [inhibitor, partial curve, poor fit]
COc1ccc2nc(C)cc(NCc3ccc(F)cc3)c2c1	inconclusive: 20.6 µM [inhibitor, single point]
Cc1nn(-c2ccccc2)c2c1C1(C(=O)N(C)c3ccccc31)C(C#N)=C(N)O2 (centres undefined)	inactive
CCOC(=O)c1sc(NC(=O)CN2C(=O)C3CC=CCC3C2=O)nc1C (centres undefined)	inactive
O=C(/C=C/c1ccco1)Nc1ccc(CN2CCOCC2)cc1	inconclusive: 8.2 µM [activator, partial curve]
COc1ccccc1C(=O)Nc1ccccc1N1CCN(C(=O)c2ccc(Cl)cc2)CC1	active: 14.6 µM
O=C(NC1CC1)c1ccc(CSCc2ccccc2Cl)o1	inactive
CCN(CC)S(=O)(=O)c1ccc(/C=C/C(=O)N(c2ccccn2)C2CCCCC2)cc1	inconclusive: 29.1 µM [inhibitor, single point]
CCOc1ccc(S(=O)(=O)N(C)c2ccc(OCC(=O)NCC3CCCCC3)cc2)cc1	active: 25.9 µM
Cc1ccc(N(NC(=O)C(O)(c2ccccc2)c2ccccc2)C(=O)CCl)cc1	active: 20.6 µM
COc1ccc(/C=C/C(=O)NC(=S)Nc2cc3oc4ccccc4c3cc2OC)cc1	inconclusive: 9.2 µM [activator, partial curve, poor fit]

Rewritten in markdown: two of the compounds above

| Compound | Potency |
| --- | --- |
| Cc1nn(-c2ccccc2)c2c1C1(C(=O)N(C)c3ccccc31)C(C#N)=C(N)O2 (centres undefined) | inactive |
| O=C(/C=C/c1ccco1)Nc1ccc(CN2CCOCC2)cc1 | inconclusive: 8.2 µM [activator, partial curve] |

— PubChem BioAssay AID504467 (National Center for Advancing Translational Sciences (NCATS), 2011)
